Values of other authors in patent publication US20100137433A1, “Production of Rosmarinic Acid from Spearmint and uses Thereof” (priority 2007, published 2010).
For at least one compound, name, drawing or mass did not settle the structure.

How the values were obtained:
[1] = tested on: adults with nasal polyposis; settings: intranasal, 4 weeks, vs placebo; cited from earlier work
[2] = tested on: adults with nasal polyposis; settings: 10 mg once daily, 4 weeks, vs placebo; cited from earlier work

SMILES	Blood and nasal lavage eosinophil counts [1]	Symptoms, nasal peak inspiratory flow and quality of life [1]	Quality of life and peak nasal inspiratory flow rates [2]
CCCC1O[C@@H]2C[C@H]3[C@@H]4CCC5=CC(=O)C=C[C@]5(C)[C@H]4[C@@H](O)C[C@]3(C)[C@]2(C(=O)CO)O1 (stereo partly drawn) [Budesonide]	reduction	improved	
CC(C)(O)c1ccccc1CC[C@@H](SCC1(CC(=O)O)CC1)c1cccc(/C=C/c2ccc3ccc(Cl)cc3n2)c1 [montelukast]			significant improvement
